Results reported in PubChem BioAssay AID248 (DTP/NCI, 2004).
The list does not hold the whole screen: it gathers tests that were run many times, whatever their T/C, doses with no T/C, and many T/C values between a quarter and a half above the control. Further doses and runs are listed elsewhere. T/C gives the treated animals as a percentage of the vehicle group. Some doses have a count of surviving animals in place of a T/C: the source files T/C as zero there, which appears to mark a toxic dose or a test without result, not a measured value. Some doses without a T/C left all or most animals alive at the check, yet need not have been tolerated: survival well below the control is almost never listed, so the zero probably covers shortened survival too. Survivors were counted at the toxicity check, usually on the fifth day, unless a day is given; later deaths do not show. Schedules are NCI's codes, taken here to give the interval after Q, in days (D) or hours (H), and the number of doses after X. Where survival is the endpoint, this PubChem deposit counts one and a half times the control or more as active, and values a quarter to a half above the control carry no call in these data; other NCI protocols may use other cut-offs. Some T/C values are followed by the survivors on the day toxicity was checked, most often the fifth; where none is given, no animal had died by that day. Some entries were tested several times; the results are listed from low to high. Marks such as (2×) count equal records among those shown.

Test system: L1210 leukemia ip in BDF1 mice, survival T/C
Assay: NCI In Vivo Anticancer Drug Screen. Data for tumor model L1210 Leukemia (intraperitoneal) in B6D2F1 (BDF1) mice
Conditions: higher T/C = longer survival

## O=c1[nH]c(=O)n([C@H]2CCCO2)cc1F
T/C endpoint: mean survival time, dose: 80.0 mg/kg/injection, schedule: Q01DX009 (ip), vehicle: saline
  T/C: 130 % of control
T/C endpoint: mean survival time, dose: 83.9 mg/kg/injection, schedule: Q01DX012 (sc), vehicle: clinical formulation
  T/C: 138 % of control
T/C endpoint: mean survival time, dose: 108.0 mg/kg/injection, schedule: Q01DX009 (ip), vehicle: saline
  T/C: 144 % of control
T/C endpoint: mean survival time, dose: 131.0 mg/kg/injection, schedule: Q01DX005 (sc), vehicle: clinical formulation
  T/C: 139 % of control
T/C endpoint: mean survival time, dose: 131.0 mg/kg/injection, schedule: Q01DX012 (sc), vehicle: clinical formulation
  T/C: 133 % of control
T/C endpoint: mean survival time, dose: 160.0 mg/kg/injection, schedule: Q01DX009 (ip), vehicle: saline
  T/C: 149 % of control
T/C endpoint: mean survival time, dose: 180.0 mg/kg/injection, schedule: Q01DX009 (ip), vehicle: Klucel (hydroxypropylcellulose) (HPC)
  T/C: 141 % of control
T/C endpoint: mean survival time, dose: 180.0 mg/kg/injection, schedule: Q01DX009 (ip), vehicle: saline
  T/C: 132 % of control
T/C endpoint: mean survival time, dose: 180.0 mg/kg/injection, schedule: Q04DX003 (ip), vehicle: Klucel (hydroxypropylcellulose) (HPC)
  T/C: 125 % of control
T/C endpoint: mean survival time, dose: 200.0 mg/kg/injection, schedule: Q01DX009 (ip), vehicle: saline
  T/C: 138 % of control
T/C endpoint: mean survival time, dose: 200.0 mg/kg/injection, schedule: Q04DX003 (ip), vehicle: saline
  T/C: 127 and 134 % of control
T/C endpoint: mean survival time, dose: 205.0 mg/kg/injection, schedule: Q01DX002 (sc), vehicle: clinical formulation
  T/C: 127 % of control
T/C endpoint: mean survival time, dose: 225.0 mg/kg/injection, schedule: Q04DX003 (ip), vehicle: saline with Tween-80
  T/C: 131 % of control
T/C endpoint: mean survival time, dose: 300.0 mg/kg/injection, schedule: Q04DX003 (ip), vehicle: saline with Tween-80
  T/C: 140 % of control
T/C endpoint: mean survival time, dose: 320.0 mg/kg/injection, schedule: Q01DX002 (sc), vehicle: clinical formulation
  T/C: 146 % of control
T/C endpoint: mean survival time, dose: 320.0 mg/kg/injection, schedule: Q01DX009 (ip), vehicle: saline
  T/C: 136 % of control
T/C endpoint: mean survival time, dose: 363.0 mg/kg/injection, schedule: Q01DX001 (ip), vehicle: other
  T/C: 135 % of control
T/C endpoint: mean survival time, dose: 363.0 mg/kg/injection, schedule: Q01DX001 (sc), vehicle: other
  T/C: 128 and 135 % of control
T/C endpoint: mean survival time, dose: 400.0 mg/kg/injection, schedule: Q01DX002 (sc), vehicle: clinical formulation
  T/C: 130 % of control
T/C endpoint: mean survival time, dose: 400.0 mg/kg/injection, schedule: Q04DX002 (sc), vehicle: clinical formulation
  T/C: 137 % of control
T/C endpoint: mean survival time, dose: 400.0 mg/kg/injection, schedule: Q04DX003 (ip), vehicle: saline
  T/C: 133 % of control
T/C endpoint: mean survival time, dose: 400.0 mg/kg/injection, schedule: Q10DX002 (sc), vehicle: clinical formulation
  T/C: 138 % of control
T/C endpoint: mean survival time, dose: 450.0 mg/kg/injection, schedule: Q04DX003 (ip), vehicle: saline with Tween-80
  T/C: 145 % of control
T/C endpoint: mean survival time, dose: 490.0 mg/kg/injection, schedule: Q01DX001 (ip), vehicle: other
  T/C: 128 % of control
T/C endpoint: mean survival time, dose: 490.0 mg/kg/injection, schedule: Q01DX001 (sc), vehicle: other
  T/C: 126 and 135 % of control
T/C endpoint: mean survival time, dose: 500.0 mg/kg/injection, schedule: Q04DX002 (sc), vehicle: clinical formulation
  T/C: 138 % of control
T/C endpoint: mean survival time, dose: 625.0 mg/kg/injection, schedule: Q01DX001 (sc), vehicle: clinical formulation
  T/C: 138 % of control
T/C endpoint: mean survival time, dose: 625.0 mg/kg/injection, schedule: Q04DX002 (sc), vehicle: clinical formulation
  T/C: 129 % of control
T/C endpoint: mean survival time, dose: 625.0 mg/kg/injection, schedule: Q10DX002 (sc), vehicle: clinical formulation
  T/C: 135 % of control
T/C endpoint: mean survival time, dose: 640.0 mg/kg/injection, schedule: Q01DX009 (oral), vehicle: saline
  survivor count: 6 of 6
T/C endpoint: mean survival time, dose: 700.0 mg/kg/injection, schedule: Q01DX001 (ip), vehicle: other
  survivor count: 6 of 6
T/C endpoint: mean survival time, dose: 781.0 mg/kg/injection, schedule: Q01DX001 (sc), vehicle: clinical formulation
  T/C: 135 % of control
T/C endpoint: mean survival time, dose: 833.0 mg/kg/injection, schedule: Q01DX001 (ip), vehicle: Klucel (hydroxypropylcellulose) (HPC)
  T/C: 130 % of control [7 of 8 alive]
T/C endpoint: mean survival time, dose: 977.0 mg/kg/injection, schedule: Q10DX002 (sc), vehicle: clinical formulation
  T/C: 144 % of control
T/C endpoint: mean survival time, dose: 1000.0 mg/kg/injection, schedule: Q01DX001 (ip), vehicle: other
  survivor count: 6 of 6
T/C endpoint: mean survival time, dose: 1000.0 mg/kg/injection, schedule: Q01DX001 (sc), vehicle: other
  survivor count: 6 of 6
T/C endpoint: mean survival time, dose: 1280.0 mg/kg/injection, schedule: Q01DX009 (oral), vehicle: saline
  survivor count: 1 of 6
T/C endpoint: mean survival time, dose: 1428.0 mg/kg/injection, schedule: Q01DX001 (ip), vehicle: other
  survivor count: 6 of 6
T/C endpoint: mean survival time, dose: 1428.0 mg/kg/injection, schedule: Q01DX001 (sc), vehicle: other
  survivor count: 6 of 6
T/C endpoint: median survival time, dose: 39.0 mg/kg/injection, schedule: Q01DX009 (ip), vehicle: other
  T/C: 142 % of control
T/C endpoint: median survival time, dose: 39.0 mg/kg/injection, schedule: Q03HX008 (ip), vehicle: other
  T/C: 141 % of control
T/C endpoint: median survival time, dose: 65.0 mg/kg/injection, schedule: Q03HX008 (ip), vehicle: other
  T/C: 137 % of control
T/C endpoint: median survival time, dose: 75.0 mg/kg/injection, schedule: Q04DX003 (ip), vehicle: Klucel (hydroxypropylcellulose) (HPC), evaluated on day 5
  T/C: 96 and 101 % of control
T/C endpoint: median survival time, dose: 75.0 mg/kg/injection, schedule: Q04DX003 (ip), vehicle: Klucel (hydroxypropylcellulose) (HPC), evaluated on day 30
  T/C: 96 and 101 % of control
T/C endpoint: median survival time, dose: 75.0 mg/kg/injection, schedule: Q04DX003 (ip), vehicle: other, evaluated on day 5
  T/C: 101, 103, 107 % of control
T/C endpoint: median survival time, dose: 75.0 mg/kg/injection, schedule: Q04DX003 (ip), vehicle: other, evaluated on day 30
  T/C: 100, 103, 107 % of control
T/C endpoint: median survival time, dose: 108.0 mg/kg/injection, schedule: Q01DX009 (ip), vehicle: other
  T/C: 134 % of control
T/C endpoint: median survival time, dose: 150.0 mg/kg/injection, schedule: Q04DX003 (ip), vehicle: Klucel (hydroxypropylcellulose) (HPC), evaluated on day 5
  T/C: 104 and 108 % of control
T/C endpoint: median survival time, dose: 150.0 mg/kg/injection, schedule: Q04DX003 (ip), vehicle: Klucel (hydroxypropylcellulose) (HPC), evaluated on day 30
  T/C: 104 and 108 % of control
T/C endpoint: median survival time, dose: 150.0 mg/kg/injection, schedule: Q04DX003 (ip), vehicle: other, evaluated on day 5
  T/C: 109, 114, 124 % of control
T/C endpoint: median survival time, dose: 150.0 mg/kg/injection, schedule: Q04DX003 (ip), vehicle: other, evaluated on day 30
  T/C: 111, 114, 124 % of control
T/C endpoint: median survival time, dose: 180.0 mg/kg/injection, schedule: Q04DX003 (oral), vehicle: other
  T/C: 126 % of control
T/C endpoint: median survival time, dose: 300.0 mg/kg/injection, schedule: Q01DX001 (ip), vehicle: other
  T/C: 126 % of control [7 of 8 alive]
T/C endpoint: median survival time, dose: 300.0 mg/kg/injection, schedule: Q04DX003 (ip), vehicle: Klucel (hydroxypropylcellulose) (HPC), evaluated on day 5
  T/C: 102 and 150 % of control
T/C endpoint: median survival time, dose: 300.0 mg/kg/injection, schedule: Q04DX003 (ip), vehicle: Klucel (hydroxypropylcellulose) (HPC), evaluated on day 30
  T/C: 102 and 150 % of control
T/C endpoint: median survival time, dose: 300.0 mg/kg/injection, schedule: Q04DX003 (ip), vehicle: other, evaluated on day 5
  T/C: 133, 152, 156 % of control
T/C endpoint: median survival time, dose: 300.0 mg/kg/injection, schedule: Q04DX003 (ip), vehicle: other, evaluated on day 30
  T/C: 133, 140, 152 (2×), 156 % of control
T/C endpoint: median survival time, dose: 300.0 mg/kg/injection, schedule: Q04DX003 (ip), vehicle: water, evaluated on day 5
  T/C: 139 % of control
T/C endpoint: median survival time, dose: 300.0 mg/kg/injection, schedule: Q04DX003 (ip), vehicle: water, evaluated on day 30
  T/C: 139 % of control
T/C endpoint: median survival time, dose: 300.0 mg/kg/injection, schedule: Q04DX003 (sc), vehicle: other
  T/C: 149 % of control
T/C endpoint: median survival time, dose: 500.0 mg/kg/injection, schedule: Q01DX001 (ip), vehicle: other
  T/C: 141 % of control
T/C endpoint: median survival time, dose: 500.0 mg/kg/injection, schedule: Q04DX003 (ip), vehicle: other
  T/C: 125 % of control
T/C endpoint: median survival time, dose: 600.0 mg/kg/injection, schedule: Q04DX003 (ip), vehicle: Klucel (hydroxypropylcellulose) (HPC), evaluated on day 5
  T/C: 97 and 148 % of control
T/C endpoint: median survival time, dose: 600.0 mg/kg/injection, schedule: Q04DX003 (ip), vehicle: Klucel (hydroxypropylcellulose) (HPC), evaluated on day 30
  T/C: 97 and 148 % of control
T/C endpoint: median survival time, dose: 600.0 mg/kg/injection, schedule: Q04DX003 (ip), vehicle: other, evaluated on day 5
  T/C: 104, 138, 155 % of control
T/C endpoint: median survival time, dose: 600.0 mg/kg/injection, schedule: Q04DX003 (ip), vehicle: other, evaluated on day 30
  T/C: 104, 138, 155 % of control
T/C endpoint: median survival time, dose: 600.0 mg/kg/injection, schedule: Q04DX003 (ip), vehicle: water, evaluated on day 5
  T/C: 129 % of control
T/C endpoint: median survival time, dose: 600.0 mg/kg/injection, schedule: Q04DX003 (ip), vehicle: water, evaluated on day 30
  T/C: 129 % of control
T/C endpoint: median survival time, dose: 833.0 mg/kg/injection, schedule: Q01DX001 (ip), vehicle: other
  T/C: 141 % of control
T/C endpoint: median survival time, dose: 833.0 mg/kg/injection, schedule: Q04DX003 (ip), vehicle: other
  survivor count: 8 of 8
T/C endpoint: median survival time, dose: 1200.0 mg/kg/injection, schedule: Q04DX003 (ip), vehicle: Klucel (hydroxypropylcellulose) (HPC), evaluated on day 5
  T/C: 75 and 125 % of control
T/C endpoint: median survival time, dose: 1200.0 mg/kg/injection, schedule: Q04DX003 (ip), vehicle: Klucel (hydroxypropylcellulose) (HPC), evaluated on day 30
  T/C: 125 % of control
T/C endpoint: median survival time, dose: 1200.0 mg/kg/injection, schedule: Q04DX003 (ip), vehicle: Klucel (hydroxypropylcellulose) (HPC)
  survivor count: 5 of 8
T/C endpoint: median survival time, dose: 1200.0 mg/kg/injection, schedule: Q04DX003 (ip), vehicle: other, evaluated on day 5
  T/C: 91, 105, 160 % of control
T/C endpoint: median survival time, dose: 1200.0 mg/kg/injection, schedule: Q04DX003 (ip), vehicle: other, evaluated on day 30
  T/C: 91 [7 of 8 alive], 105, 161 % of control
